Results taken from publication PMC10280131 (RSC Advances, 2023).

Tested on: brain tissue of AD-induced rats
Experiment: Brain oxidative stress markers
Assay type: in vivo, rat

With COc1cc2c(cc1OC)C(=O)C(CC1CCN(Cc3ccccc3)CC1)C2 (stereo not drawn) [Donepezil, reference compound] the GSH % improvement (AD-induced rats) was 35.03%, the MDA % improvement (AD-induced rats) was 90.64% and the GSH (AD-induced rats, n = 8) was 23.99 ± 2.00 mg per g tissues. The MDA (AD-induced rats, n = 8) was 22.43 ± 2.00 mg per g tissues, the “GSH % change to disease” value (vs AD group) was 76.40% and the “MDA % change to disease” value (vs AD group) was 32.19%.
